Literature values in patent publication US9314524B2, “Topical formulations of Flucytosine” (priority 2007, dated 2016).
For at least one compound, name, drawing or mass did not settle the structure.

Tests used:
Candida glabrata = details: 68 Candida glabrata strains
Candida albicans = details: 342 Candida albicans strains
Candida parapsilosis = details: 65 Candida parapsilosis strains

## CCC(C)n1ncn(-c2ccc(N3CCN(c4ccc(OCC5COC(Cn6cncn6)(c6ccc(Cl)cc6Cl)O5)cc4)CC3)cc2)c1=O (stereo not drawn) [itraconazole]
Candida glabrata
  isolates demonstrating resistance: 4.4%
Candida albicans
  isolates showing resistance: 8.5%
Candida parapsilosis
  isolates demonstrating resistance: 1.5%
